Laboratory results: PubChem BioAssay AID504764 (Drosophila RNAi Screening Center, 2011)

- Aim: 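Knock-downs that raise or lower a Notch target reporter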 (primary screen)
- Cell system: Drosophila Kc167 cells
- Reagent: long dsRNA against Drosophila genes
- Duration: about 5 days (4 days dsRNA, then 24 h after transfection)
- Conditions: transfection of constitutively active membrane-tethered Notch lacking the extracellular domain, read 24 h later
- Measurement: 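Firefly luciferase from an E(spl)m3 reporter with active Notch, plus control-promoter and uninduced reporter wells for normalisation; unnormalised counts, duplicate wells a and b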
- Direction: induced reporter light, run 1, well a and induced reporter light, run 1, well b: higher = more light from the Notch target reporter with active Notch; control promoter light, run 1, well a and control promoter light, run 1, well b: higher = more light from the viral control promoter (cell number, transfection, viability); uninduced reporter light, run 1, well a: higher = more light from the Notch target reporter without active Notch
- Rule for the call: 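Wells with low control signal or poorly matching duplicates excluded; duplicates averaged; per source plate, z beyond ±2 for induced/control log2 ratio or beyond ±1.8 for induced/uninduced marks a hit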
- Calls: active = modifier hit (raised or lowered Notch signal); inactive = not a hit
The deposit covers about 22,000 reagents; shown is an unselected part of those that have a named target and a result. Over the whole deposit, 403 (1.9%) were called active. 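Unnormalised raw counts per well; ratio z-scores behind the hit calls and whether each hit raises or lowers signal are not deposited.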 Reagents against one gene are numbered here. A plus sign joins genes that one reagent is predicted to hit. Not given: the amount of reagent.

no.	predicted target	reagent no.	induced reporter light, run 1, well a	induced reporter light, run 1, well b	control promoter light, run 1, well a	control promoter light, run 1, well b	uninduced reporter light, run 1, well a	activity call
1	eEF1alpha2 (eukaryotic translation elongation factor 1 alpha 2)	1	83540	1.04e5	1.26e5	1.11e5	6560	inactive
2	eEF1alpha2 (eukaryotic translation elongation factor 1 alpha 2)	2	73285	66020	1.09e5	1.21e5	5785	inactive
3	CG3548	1	68955	59170	46555	41450	3850	inactive
4	CG13284	1	1.36e5	1.42e5	1.63e5	1.86e5	12575	inactive
5	CG11267	1	1.79e5	1.81e5	2.48e5	2.80e5	11270	inactive
6	Unc-115a (Uncoordinated 115a)	1	1.67e5	1.90e5	1.94e5	1.85e5	10295	inactive
7	SelG (Selenoprotein G)	1	1.54e5	1.76e5	2.03e5	2.15e5	11915	inactive
8	CG2269	1	1.67e5	1.43e5	1.56e5	1.50e5	15392	inactive
9	CG6287	1	2.20e5	2.16e5	2.09e5	1.98e5	17620	inactive
10	CG42675	1	1.49e5	1.12e5	1.01e5	73130	9595	inactive
11	X11L	1	1.40e5	1.11e5	1.08e5	76845	8382	inactive
12	X11L	2	86480	83280	94780	91990	12230	inactive
13	CG12182	1	1.18e5	1.15e5	2.15e5	2.16e5	8900	inactive
14	Wbp2 (WW domain binding protein 2)	1	73935	70390	40020	21015	10665	inactive
15	sloth2 + sloth1	1	1.36e5	1.54e5	2.55e5	2.70e5	11085	inactive
16	sloth2 + sloth1	2	1.35e5	1.40e5	2.41e5	2.34e5	11335	inactive
17	CG31663	1	1.05e5	95105	1.76e5	1.14e5	9695	inactive
18	CG31663	2	1.64e5	1.98e5	1.39e5	1.77e5	14105	inactive
19	CG31663	3	1.96e5	1.63e5	3.34e5	2.76e5	14425	inactive
20	CG31663	4	1.87e5	1.72e5	1.63e5	59960	11180	inactive
